# Measurements taken from PubChem BioAssay AID493014 (National Center for Advancing Translational Sciences (NCATS), 2011).
# This is one part of the list. These are further read-outs of the screen, such as a control signal, another cell line or another target. No call is given for them. Compounds called inactive in the main read-out are mostly missing here. Words in brackets tell the shape of the fitted curve; partial curves, single points and poor fits give uncertain potencies.
# Assay: qHTS Assay to Find Inhibitors of Chronic Active B-Cell Receptor Signaling
# Conditions: ABC-DLBCL IkBa-CBG/CBR reporter, luminescence ratio (green luciferase fused to IkBa over red control in TMD8 lymphoma cells), 4 h
# In short: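 TMD8 human ABC-DLBCL cells with doxycycline-inducible IκBα–green luciferase fusion and unfused red luciferase, in 0.5% FBS medium; compounds up to 46 uM, 4 h at 37C. Green/red luminescence ratio, filter-overlap corrected, fitted to concentration-response curves.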
# [1] = measured here: CBR red luminescence, cell number
# [2] = measured here: IkBa-CBG green luminescence
Compound,AC50 [1],AC50 [2]
COc1ccc(Br)cc1CN(C)C(=O)C1=CC=CN2CCS(=O)(=O)N=C12,"29.1 µM [rising, single point]",
Nc1c(C(=O)NCc2ccc3c(c2)OCO3)nnn1-c1ccc(OC(F)(F)F)cc1,"0.00517 µM [falling, full curve, poor fit]",
Cc1ccc(C)c(S(=O)(=O)NCc2ccc(C(=O)N3CCC(Cc4ccccc4)CC3)cc2)c1,"25.1 µM [falling, single point]",
Cc1cc(NC(=O)CN(C)C)c([N+](=O)[O-])cc1C,"35.5 µM [rising, single point]",
C#CC1(NC(=O)NC(C)C)CCCCC1,"31.6 µM [rising, single point]",
Cc1nc2ccc(NC(=S)NCCCO)cc2nc1C,"0.112 µM [rising, full curve, poor fit]",
COc1ccccc1OCCOCCOc1ccccc1Cl,"0.58 µM [rising, full curve]",
Cc1ccc(NC(=S)NC(NC(=O)Cc2cccc3ccccc23)C(Cl)(Cl)Cl)cc1 (stereo not drawn),"0.517 µM [falling, full curve, poor fit]",
CSc1ccc(CN2CCN(C3CCCC3)C(CCO)C2)cc1 (stereo not drawn),"35.5 µM [falling, single point]",
CCc1nc(Nc2ccccc2)c2oc3ccccc3c2n1,"0.708 µM [falling, full curve]",
CCOC(=O)c1c(NC(=O)CSc2nnnn2CC)sc(C)c1C,"15.8 µM [falling, single point]",
O=C(Nc1ccc(F)cc1)C1CCCN1S(=O)(=O)c1cccc2nsnc12 (stereo not drawn),"0.251 µM [rising, full curve, poor fit]",
O=C(CCC(=O)N1CCSc2ccccc21)Nc1ccc(F)cc1,"11.2 µM [falling, partial curve, poor fit]",
CCOC(=O)c1cc(C(C)(C)C)oc1CNC(=O)c1c(C)oc2c1CCCC2,"18.4 µM [falling, partial curve, poor fit]","29.1 µM [rising, partial curve, poor fit]"
Cc1ccc(NC(=O)CS(=O)CC(=O)Nc2ccc(N3CCOCC3)cc2)cc1Cl (stereo not drawn),"31.6 µM [rising, single point]",
Cc1cc(Oc2ccc(=O)n(C)n2)nc(Oc2ccc(=O)n(C)n2)n1,"3.66 µM [rising, single point]",
CS(=O)(=O)c1nc(-c2ccc(Br)cc2)cc(-c2ccccc2)c1C#N,"3.26 µM [falling, single point]",
O=C(O)/C=C/C(=O)c1ccc2c(c1)CCc1ccccc1-2,"29.1 µM [falling, partial curve, poor fit]","3.66 µM [rising, partial curve, poor fit]"
COc1cccc(OCCCOc2ccc([N+](=O)[O-])cc2Cl)c1,"35.5 µM [rising, single point]",
Cc1ccc(-n2ncc3c(Nc4ccccc4C)ncnc32)cc1,"35.5 µM [falling, single point]",
Cc1ccc2nc(NC(=O)CN3C(=O)C4CC=CCC4C3=O)sc2c1 (stereo not drawn),"12.6 µM [falling, single point]",
O=C(Nc1cccc(Br)c1)c1ccc(CN2CCc3ccccc3C2)cc1,"11.2 µM [falling, partial curve]",

# By substructure: the entries above containing a nitro group on carbon (2)
Compound,AC50 [1],AC50 [2]
Cc1cc(NC(=O)CN(C)C)c([N+](=O)[O-])cc1C,"35.5 µM [rising, single point]",
COc1cccc(OCCCOc2ccc([N+](=O)[O-])cc2Cl)c1,"35.5 µM [rising, single point]",

# (continued)

Compound,AC50 [1],AC50 [2]
Cc1ccc(-c2nnc(CSc3nnc(COc4ccccc4)n3-c3ccc(C)cc3)o2)cc1,"35.5 µM [falling, single point]",
Cc1nn(-c2ccccc2)c(C)c1C(=O)OCC(=O)NC(=O)NC1CCCC1,"1.78 µM [falling, partial curve]",
Cc1occc1C(=O)N/N=C/C=C\c1ccccc1[N+](=O)[O-],"11.2 µM [falling, partial curve]",
COc1ccc(CNC(=O)c2ccc3c(c2)NC(=O)C(C)S3)cc1 (stereo not drawn),"0.562 µM [falling, partial curve, poor fit]",
CCC(=O)Nc1nonc1-c1nc2ccccc2n1Cc1ccccc1,"16.4 µM [rising, single point]",
Cc1oc(CC(C)C)cc1C(=O)Nc1ccc(C(=O)O)cc1,"8.91 µM [falling, partial curve]",
O=C(c1cc(-c2ccc(Cl)c(Cl)c2)on1)N1CCCCC1,"2.51 µM [falling, full curve]",
O=c1c2ccccc2nc(-c2ccc(F)cc2)n1NCc1ccccc1O,"8.91 µM [falling, partial curve, poor fit]",
COc1ccccc1-c1cc(C(F)(F)F)nc(S(C)(=O)=O)n1,"6.51 µM [falling, partial curve]","5.17 µM [rising, partial curve, poor fit]"
COc1ccc(C2CC(c3ccccc3)=NN2c2ccc(S(N)(=O)=O)cc2)cc1OC (stereo not drawn),"12.6 µM [falling, partial curve, poor fit]",
CSc1nc(O)c(Cc2ccccc2)c(=O)[nH]1,"4.47 µM [falling, partial curve, poor fit]",
O=S(=O)(Nc1nc2ccccc2s1)c1ccc(Br)s1,"11.6 µM [rising, partial curve, poor fit]",
CCN1CCN(CC(=O)n2c3c(c4ccccc42)CC(C)CC3)CC1 (stereo not drawn),"29.1 µM [falling, single point]",
C/C=C(\C)C(=O)N1CC2(CC(c3cccc(NC(=O)CCCCC)c3)=NO2)C[C@@H]1C(N)=O (stereo partly drawn),"15.8 µM [falling, single point]",
COC(=O)c1cc(-c2ccc(OC)c(OC)c2)c2c(=O)[nH]c(=O)n(C)c2n1,"1.26 µM [rising, partial curve, poor fit]",
Cc1ccc(C(=O)O/N=C(\N)c2ccccn2)cc1Cl,"3.16 µM [falling, partial curve, poor fit]",
O=C(NCCc1ccccc1)c1ccc2c(c1)OCO2,"5.01 µM [falling, partial curve]",
CC(=O)Nc1ccc(C(=O)N(C)C(C(=O)Nc2ccc(C)cc2)c2ccccn2)cc1 (stereo not drawn),"13 µM [rising, partial curve, poor fit]",
CC1CCCCN1c1ccc(N)cc1C(N)=O (stereo not drawn),"35.5 µM [falling, single point]",
CCC(C)c1ccc(NC(=S)NN2CCOCC2)cc1 (stereo not drawn),"6.51 µM [rising, single point]",
CCC(CC)c1nnc(NC(=O)c2cc([N+](=O)[O-])ccc2N2CCCCC2)s1,"0.103 µM [rising, full curve, poor fit]",
CC(C)C(OC(=O)c1ccccc1)c1nccc2ccccc12 (stereo not drawn),"11.2 µM [rising, single point]",

# In the list so far, these have a CF3 group.
Compound,AC50 [1],AC50 [2]
Nc1c(C(=O)NCc2ccc3c(c2)OCO3)nnn1-c1ccc(OC(F)(F)F)cc1,"0.00517 µM [falling, full curve, poor fit]",
COc1ccccc1-c1cc(C(F)(F)F)nc(S(C)(=O)=O)n1,"6.51 µM [falling, partial curve]","5.17 µM [rising, partial curve, poor fit]"

# Continued.

Compound,AC50 [1],AC50 [2]
CC1C(=O)CCN(C(C)(C)C)C1C (stereo not drawn),"31.6 µM [rising, partial curve, poor fit]",
CCCN(CC(=O)Nc1ccccc1C)C(=O)c1ccc(-c2ccc([N+](=O)[O-])cc2)o1,"29.1 µM [rising, single point]","18.4 µM [falling, partial curve, poor fit]"
CCC(C)c1ccc(NC(=O)C2=CC=CN3CCS(=O)(=O)N=C23)cc1 (stereo not drawn),"1.46 µM [rising, full curve, poor fit]",
C/C(=N/NC(=O)c1ccco1)c1cccnc1,"31.6 µM [falling, single point]",
CCOC(=O)C(=O)Nc1cc(C)on1,"0.0316 µM [falling, full curve, poor fit]",
C/C(=N\Nc1nc(C)cc(-c2ccccc2)n1)c1ccc(C)o1,"0.891 µM [rising, full curve, poor fit]",
CC1CCC(NC(=O)CSc2nncs2)CC1 (stereo not drawn),"18.4 µM [rising, single point]",
CC1CCN(c2c([N+](=O)[O-])nn(-c3ccc4c(c3)OCCO4)[n+]2[O-])CC1,"6.51 µM [rising, full curve, poor fit]",
CCCn1c(SCC(=O)N2CCN(c3ccccc3)CC2)nc2ccccc2c1=O,"0.82 µM [rising, partial curve, poor fit]",
C[C@H](CO)N1C[C@H](C)[C@H](CN(C)C(=O)Nc2ccc(F)cc2)Oc2ccc(NC(=O)NC3CCCCC3)cc2CC1=O,"0.0058 µM [rising, full curve, poor fit]",
Cc1ccccc1C(=O)Nc1ccc2c(c1)CCCN2C(=O)c1cccs1,"1.26 µM [falling, full curve, poor fit]",
O=Cc1ccc(N2Cc3ccccc3C2)cc1,"10 µM [rising, partial curve]",
COc1cccc(C(=O)NCCSc2ccc(Br)cc2)c1,"35.5 µM [falling, single point]",
O=C(O)COc1ccc(Nc2ccccc2)cc1,"12.6 µM [rising, partial curve, poor fit]",
Cc1ccc(C2(O)CN(c3ccccc3C)C3=[N+]2CCS3)cc1 (stereo not drawn),"11.6 µM [falling, partial curve, poor fit]",
O=C(OCC(=O)N1CCCC1)c1c[nH]c2ccccc12,"18.4 µM [falling, partial curve]",
O=C(CSc1nnc2ccc3ccccc3n12)c1ccc(F)cc1,"9.2 µM [falling, partial curve]",
Cc1cc(C)n2c(SCC(=O)Nc3cc(S(=O)(=O)N(C)C)ccc3C)nnc2n1,"13 µM [rising, partial curve]",
O=C(COc1ccc(Br)cc1)NCCCn1ccnc1,"25.1 µM [rising, single point]",
O=C(N/N=C/c1ccc(OCc2ccc(F)cc2)cc1)c1ccccc1,"20 µM [falling, partial curve, poor fit]",
